The results in this text go back to article PMC8118649.

These are yes or no findings as the source states them, for the method shown. In cells and extracts the contact can be indirect. For some of these results: A result given as binding can be weak or reduced; the word gives no strength. Sequences can lack the tags named with a protein.

Holding throughout (assay): co-IP; HEK293T cells co-transfected for 48 h with Myc-tagged EGFR (full-length or truncated) and Flag-tagged ZNRF1 (full-length or truncated); immunoprecipitation and immunoblotting with the indicated antibodies
The target of assay [1] is Myc-tagged EGFR N-terminal truncated form.
In assay [2] the target is Myc-tagged EGFR C-terminal truncated form.
The target in assay [3] is Myc-tagged EGFR tyrosine kinase domain (TKD) truncated form.
Assay [4] concerns the target Myc-tagged EGFR TKD plus C-terminal truncated form.

B1: Flag-tagged full-length ZNRF1, expressed in HEK293T cells (enzyme, UniProt Q8ND25 1-227)
chain: MGGKQSTAARSRGPFPGVSTDDSAVPPPGGAPHFGHYRTGGGAMGLRSRSVSSVAGMGMDPSTAGGVPFGLYTPASRGTGDSERAPGGGGSASDSTYAHGNGYQETGGGHHRDGMLYLGSRASLADALPLHIAPRWFSSHSGFKCPICSKSVASDEMEMHFIMCLSKPRLSYNDDVLTKDAGECVICLEELLQGDTIARLPCLCIYHKSCIDSWFEVNRSCPEHPAD
As to B1, the binding result was “no binding” in assay [1], “no binding” in assay [2], “binds” in assay [3] and “binds” in assay [4].
